{"source": "PubChem BioAssay AID1224826 (NIAID, 2016)", "test": "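Genes that change LPS-induced Tnf promoter activity in mouse macrophages when knocked down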 (primary screen)", "cell system": "RAW264.7 G9 macrophages from mouse bearing reporters for p65 (GFP) and the Tnf promoter (mCherry)", "reagent": "siRNA pool against mouse genes, 100 nM", "time to read-out": "16 h of LPS stimulation, after 2 days of siRNA transfection", "conditions": "bacterial lipopolysaccharide (Salmonella minnesota R595), 10 ng/ml", "detection": "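Nuclear mCherry signal of the Tnf promoter reporter measured by imaging after background removal, scaled to each plate median and turned into robust z-scores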", "direction": "Tnf reporter robust z-score: higher = stronger Tnf promoter reporter signal after LPS", "hit rule": "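Called active when robust z-score is at most -1.3, matching the median of the Tlr4 knock-down control, or over 3; control wells and wells with under 50 cells never active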", "meaning of the calls": "active = Tnf reporter clearly lowered or raised; inactive = no clear change in Tnf reporter", "note": "The deposit covers about 17,000 reagents; below is a random part of them. Over the whole deposit, about 1,110 (6.6%) were called active. 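Active means lowered or raised reporter signal; replicate intensities are raw and not normalised per plate.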 A number with no mark means an inactive call. The numbers tell different reagents against one gene apart. Not all columns of the deposit are shown. No sequences are given here."}
{"target gene":"Dnaaf4","reagent":1,"Tnf reporter robust z-score":-0.96,"fewer than 50 cells in well":"enough cells in well"}
{"target gene":"Lyplal1","reagent":1,"Tnf reporter robust z-score":-0.22,"fewer than 50 cells in well":"enough cells in well"}
{"target gene":"Ocrl","reagent":1,"Tnf reporter robust z-score":-0.48,"fewer than 50 cells in well":"enough cells in well"}
{"target gene":"5830416A07RIK","reagent":1,"Tnf reporter robust z-score":"-1.3 (active)","fewer than 50 cells in well":"enough cells in well"}
{"target gene":"Fam32a","reagent":1,"Tnf reporter robust z-score":-0.74,"fewer than 50 cells in well":"enough cells in well"}
{"target gene":"Cpeb4","reagent":1,"Tnf reporter robust z-score":0.39,"fewer than 50 cells in well":"enough cells in well"}
{"target gene":"Clec2d","reagent":1,"Tnf reporter robust z-score":-0.76,"fewer than 50 cells in well":"enough cells in well"}
{"target gene":"Dnah5","reagent":1,"Tnf reporter robust z-score":"-1.38 (active)","fewer than 50 cells in well":"enough cells in well"}
{"target gene":"Abcf2","reagent":1,"Tnf reporter robust z-score":0.91,"fewer than 50 cells in well":"enough cells in well"}
{"target gene":"Asgr1","reagent":1,"Tnf reporter robust z-score":2.69,"fewer than 50 cells in well":"enough cells in well"}
{"target gene":"Zfp799","reagent":1,"Tnf reporter robust z-score":0.72,"fewer than 50 cells in well":"enough cells in well"}
{"target gene":"Mup1","reagent":1,"Tnf reporter robust z-score":-0.76,"fewer than 50 cells in well":"enough cells in well"}
{"target gene":"Prpf3","reagent":1,"Tnf reporter robust z-score":0.1,"fewer than 50 cells in well":"enough cells in well"}

Records above called active (2):
{"target gene":"5830416A07RIK","reagent":1,"Tnf reporter robust z-score":"-1.3 (active)","fewer than 50 cells in well":"enough cells in well"}
{"target gene":"Dnah5","reagent":1,"Tnf reporter robust z-score":"-1.38 (active)","fewer than 50 cells in well":"enough cells in well"}

The listing continues.
{"target gene":"Acox1","reagent":1,"Tnf reporter robust z-score":0.55,"fewer than 50 cells in well":"enough cells in well"}
{"target gene":"U2af1l4","reagent":1,"fewer than 50 cells in well":"fewer than 50 cells per well; well left out of calls"}
{"target gene":"Cd9","reagent":1,"Tnf reporter robust z-score":-0.46,"fewer than 50 cells in well":"enough cells in well"}
{"target gene":"Dnah1","reagent":1,"Tnf reporter robust z-score":"-1.96 (active)","fewer than 50 cells in well":"enough cells in well"}
{"target gene":"Dnah1","reagent":2,"Tnf reporter robust z-score":-0.87,"fewer than 50 cells in well":"enough cells in well"}
{"target gene":"Prkcg","reagent":1,"Tnf reporter robust z-score":0.35,"fewer than 50 cells in well":"enough cells in well"}
{"target gene":"Ncoa7","reagent":1,"Tnf reporter robust z-score":2.9,"fewer than 50 cells in well":"enough cells in well"}
{"target gene":"Pamr1","reagent":1,"Tnf reporter robust z-score":-0.19,"fewer than 50 cells in well":"enough cells in well"}
